The values below come from paper PMC10963591.

By UniProt entry, the sequences of proteins in these tests, tags left out.
UniProt P84022: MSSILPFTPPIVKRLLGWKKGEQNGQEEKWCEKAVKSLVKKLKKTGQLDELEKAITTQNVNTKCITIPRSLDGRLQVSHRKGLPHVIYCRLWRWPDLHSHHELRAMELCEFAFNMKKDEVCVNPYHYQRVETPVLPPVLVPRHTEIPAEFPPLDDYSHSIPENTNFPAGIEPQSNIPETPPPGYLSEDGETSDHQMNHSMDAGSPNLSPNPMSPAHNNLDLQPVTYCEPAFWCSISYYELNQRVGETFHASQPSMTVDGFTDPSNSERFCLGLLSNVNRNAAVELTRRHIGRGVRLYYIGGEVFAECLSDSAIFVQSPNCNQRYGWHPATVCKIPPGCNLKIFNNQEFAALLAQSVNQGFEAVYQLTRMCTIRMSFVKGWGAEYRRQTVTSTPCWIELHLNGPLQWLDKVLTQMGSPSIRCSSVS
UniProt Q9UNE7: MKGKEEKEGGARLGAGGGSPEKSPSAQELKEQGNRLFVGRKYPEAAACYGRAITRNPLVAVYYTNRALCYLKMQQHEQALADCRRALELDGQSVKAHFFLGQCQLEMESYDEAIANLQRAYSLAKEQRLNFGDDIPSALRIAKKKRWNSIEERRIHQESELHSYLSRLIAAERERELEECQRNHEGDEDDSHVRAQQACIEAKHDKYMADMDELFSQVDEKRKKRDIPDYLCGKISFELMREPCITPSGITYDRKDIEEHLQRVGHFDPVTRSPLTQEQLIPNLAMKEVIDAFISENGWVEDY
UniProt P40337: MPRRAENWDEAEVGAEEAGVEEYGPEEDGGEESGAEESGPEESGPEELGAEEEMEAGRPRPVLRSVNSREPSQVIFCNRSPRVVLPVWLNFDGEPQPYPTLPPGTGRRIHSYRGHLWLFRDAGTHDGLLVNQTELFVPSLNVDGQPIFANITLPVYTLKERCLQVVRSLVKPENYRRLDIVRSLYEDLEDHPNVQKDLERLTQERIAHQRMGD

The target of the experiment is Smad3 (human (endogenous in A549 and H1975)) (UniProt P84022). Kind of experiment: co-IP; A549 and H1975 cells, with or without Linc00673-V3 knockdown; NP40 lysis buffer with protease inhibitor cocktail; pre-cleared with IgG and Protein A/G PLUS-Agarose; lysate with primary antibody at 4°C overnight; Western blot. (In general: In western blotting, separated proteins are transferred to a membrane and probed.)

These are yes or no findings as the source states them, for the method shown. In cells and extracts the contact can be indirect. Some results given as binding are weak or reduced against the parent protein; the word gives no strength.

In the case of “STUB1 (from UniProt Q9UNE7 1-303) (enzyme)”, the binding entry is reported as “binds”. In the case of VHL (from UniProt P40337 1-213) it was “binds”.
